US20250145665A1, “MACROCYCLIC PEPTIDES USEFUL AS MODULATORS OF TNF ALPHA” (Bristol-Myers Squibb Company, priority 2023, published 2025)
Some results were stated once for a whole list of compounds, not compound by compound. Starred links: 1 amine or outer side, 2 acyl side, 3 side chain; linkers in the order of their positions; H or OH if unused. Positions of bridges follow the written chain, without caps; N, C: chain ends. Non-standard residues stand in square brackets, D forms with d. Residues, ends and D or L forms follow the SMILES beside them. *: point of attachment. Bip(4'-NHCO-C6H4-3-CH2COOH) = N[C@@H](Cc1ccc(-c2ccc(NC(=O)c3cccc(CC(=O)O)c3)cc2)cc1)C(=O)O; Bip(4'-NHCO-C6H4-4-CH2COOH) = N[C@@H](Cc1ccc(-c2ccc(NC(=O)c3ccc(CC(=O)O)cc3)cc2)cc1)C(=O)O; X56 = O=C(O)COc1cccc(NC(=O)c2ccc(-c3ccc(C[C@H](N[*:1])C(=O)[*:2])cc3)cc2)c1; X65 = O=C(O)Cc1cccc(NC(=O)c2ccc(-c3ccc(C[C@H](N[*:1])C(=O)[*:2])cc3)cc2)c1; X21 = N=C(NCCC[C@@H](N[*:1])C(=O)[*:2])NC[C@H](O)[C@@H](O)[C@@H](O)CO; Bip(4'-NH) = O=C([C@H](Cc1ccc(-c2ccc(N[*:3])cc2)cc1)N[*:1])[*:2]; Bip(4'-COOH) = N[C@@H](Cc1ccc(-c2ccc(C(=O)O)cc2)cc1)C(=O)O; Ala(imidazol-2-yl) = N[C@@H](Cc1ncc[nH]1)C(=O)O; dArg(ω-Bn) = N=C(NCCC[C@@H](N)C(=O)O)NCc1ccccc1; Ala(morpholin-4-yl) = N[C@@H](CN1CCOCC1)C(=O)O; Benzoyl(3-OCH2COOH) = O=C(O)COc1cccc(C(=O)*)c1; Phe(3-CONH2) = NC(=O)c1cccc(C[C@H](N)C(=O)O)c1; Bip = N[C@@H](Cc1ccc(-c2ccccc2)cc1)C(=O)O; 2Pal = N[C@@H](Cc1ccccn1)C(=O)O; 2Thi = N[C@@H](Cc1cccs1)C(=O)O; Cha = N[C@@H](CC1CCCCC1)C(=O)O; Sar = CNCC(=O)O

By UniProt entry, the sequences of proteins in these tests, tags left out. Residues count along the entry.
UniProt P01375, 77-233 limits assumed: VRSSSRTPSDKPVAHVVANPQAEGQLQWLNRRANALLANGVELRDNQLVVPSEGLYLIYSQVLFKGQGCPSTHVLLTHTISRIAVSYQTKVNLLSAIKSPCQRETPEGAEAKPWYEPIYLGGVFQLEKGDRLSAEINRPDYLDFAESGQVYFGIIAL

Each compound was assayed against TNFα (Homo sapiens, UniProt P01375) (assay: TNF-Induced HEK-Blue Assay). Settings: summary statement for all examples; read-out: IC50 values measured in the TNF induced HEK-Blue assay.
Format: cell-based

IC50, ≤ 25 µM:
CC(C)C[C@@H]1NC(=O)[C@H](Cc2cccs2)NC(=O)[C@H](C(C)C)NC(=O)[C@@H]2CCCN2C(=O)[C@H](C(C)C)NC(=O)[C@@H](CCCNC(=N)N)NC(=O)[C@H](CC(=O)O)NC(=O)[C@H](Cc2ccccn2)NC(=O)CN(C)C(=O)[C@H](Cc2ccc(-c3ccc(NC(=O)c4cccc(OCC(=O)O)c4)cc3)cc2)NC(=O)[C@H](Cc2ccc(-c3ccccc3)cc2)NC(=O)[C@H](CC2CCCCC2)NC(=O)CSC[C@@H](C(=O)NCC(N)=O)NC1=O [Example 616] ({CH2CO}-[Cha][Bip][Bip(4'-NH)](Benzoyl(3-OCH2COOH))[Sar][2Pal]D[dR]VPV[2Thi]LCG-NH2; thioether N-13), CC(C)C[C@@H]1NC(=O)[C@H](Cc2cccs2)NC(=O)[C@H](C(C)C)NC(=O)[C@@H]2CCCN2C(=O)[C@H](C(C)C)NC(=O)[C@@H](CCCNC(=N)N)NC(=O)[C@H](CC(=O)O)NC(=O)[C@H](Cc2ccccn2)NC(=O)CN(C)C(=O)[C@H](Cc2ccc(-c3ccc(NC(=O)c4ccc(CC(=O)O)cc4)cc3)cc2)NC(=O)[C@H](Cc2ccc(-c3ccccc3)cc2)NC(=O)[C@H](CC2CCCCC2)NC(=O)CSC[C@@H](C(=O)NCC(N)=O)NC1=O [Example 617] ({CH2CO}-[Cha][Bip][Bip(4'-NHCO-C6H4-4-CH2COOH)][Sar][2Pal]D[dR]VPV[2Thi]LCG-NH2; thioether N-13), CC(C)C[C@@H]1NC(=O)[C@H](Cc2cccs2)NC(=O)[C@H](C(C)C)NC(=O)[C@@H]2CCCN2C(=O)[C@H](C(C)C)NC(=O)[C@@H](CCCNC(=N)N)NC(=O)[C@H](CC(=O)O)NC(=O)[C@H](Cc2ccccn2)NC(=O)CN(C)C(=O)[C@H](Cc2ccc(-c3ccc(NC(=O)c4cccc(CC(=O)O)c4)cc3)cc2)NC(=O)[C@H](Cc2ccc(-c3ccccc3)cc2)NC(=O)[C@H](CC2CCCCC2)NC(=O)CSC[C@@H](C(=O)NCC(N)=O)NC1=O [Example 618] ({CH2CO}-[Cha][Bip][Bip(4'-NHCO-C6H4-3-CH2COOH)][Sar][2Pal]D[dR]VPV[2Thi]LCG-NH2; thioether N-13), CC(C)C[C@@H]1NC(=O)[C@H](CCCNC(=N)N)NC(=O)[C@H](C(C)C)NC(=O)[C@@H]2CCCN2C(=O)[C@H](C(C)C)NC(=O)[C@@H](CCCNC(=N)NC[C@H](O)[C@@H](O)[C@@H](O)CO)NC(=O)[C@H](CC(=O)O)NC(=O)[C@@H]2CCCN2C(=O)CN(C)C(=O)[C@H](Cc2ccc(-c3ccc(NC(=O)c4cccc(CC(=O)O)c4)cc3)cc2)NC(=O)[C@H](Cc2ccc(-c3ccccc3)cc2)NC(=O)[C@H](CN2CCOCC2)NC(=O)CSC[C@@H](C(=O)NCC(N)=O)NC1=O [Example 627] ({CH2CO}-[Ala(morpholin-4-yl)][Bip][Bip(4'-NHCO-C6H4-3-CH2COOH)][Sar]PD[X21]VPVRLCG-NH2; thioether N-13), CC[C@H](C)[C@@H]1NC(=O)[C@@H](CCCNC(=N)N)NC(=O)[C@H](CC(=O)O)NC(=O)[C@H](Cc2cnc[nH]2)NC(=O)CN(C)C(=O)[C@H](Cc2ccc(-c3ccc(C(=O)Nc4cccc(CC(=O)O)c4)cc3)cc2)NC(=O)[C@H](Cc2ccc(-c3ccc(C(=O)O)cc3)cc2)NC(=O)[C@H](CC2CCCCC2)NC(=O)CSC[C@@H](C(=O)NCC(N)=O)NC(=O)[C@H](CC(C)C)NC(=O)[C@H](Cc2cnc[nH]2)NC(=O)[C@H](C(C)C)NC(=O)[C@@H]2CCCN2C1=O [Example 630] ({CH2CO}-[Cha][Bip(4'-COOH)][X65][Sar]HD[dR]IPVHLCG-NH2; thioether N-13), CC[C@H](C)[C@@H]1NC(=O)[C@@H](CCCNC(=N)N)NC(=O)[C@H](CC(=O)O)NC(=O)[C@H](Cc2cnc[nH]2)NC(=O)CN(C)C(=O)[C@H](Cc2ccc(-c3ccc(C(=O)Nc4cccc(OCC(=O)O)c4)cc3)cc2)NC(=O)[C@H](Cc2ccc(-c3ccccc3)cc2)NC(=O)[C@H](Cc2cccc(C(N)=O)c2)NC(=O)CSC[C@@H](C(=O)NCC(N)=O)NC(=O)[C@H](CC(C)C)NC(=O)[C@H](Cc2cnc[nH]2)NC(=O)[C@H](C(C)C)NC(=O)[C@@H]2CCCN2C1=O [Example 631] ({CH2CO}-[Phe(3-CONH2)][Bip][X56][Sar]HD[dR]IPVHLCG-NH2; thioether N-13), CC[C@H](C)[C@@H]1NC(=O)[C@@H](CCCNC(=N)N)NC(=O)[C@H](CC(=O)O)NC(=O)[C@H](Cc2cnc[nH]2)NC(=O)CN(C)C(=O)[C@H](Cc2ccc(-c3ccc(C(=O)Nc4cccc(OCC(=O)O)c4)cc3)cc2)NC(=O)[C@H](Cc2ccc(-c3ccc(C(=O)O)cc3)cc2)NC(=O)[C@H](Cc2cccc(C(N)=O)c2)NC(=O)CSC[C@@H](C(=O)NCC(N)=O)NC(=O)[C@H](CC(C)C)NC(=O)[C@H](Cc2cnc[nH]2)NC(=O)[C@H](C(C)C)NC(=O)[C@@H]2CCCN2C1=O [Example 632] ({CH2CO}-[Phe(3-CONH2)][Bip(4'-COOH)][X56][Sar]HD[dR]IPVHLCG-NH2; thioether N-13), CC[C@H](C)[C@@H]1NC(=O)[C@@H](CCCNC(=N)N)NC(=O)[C@H](CC(=O)O)NC(=O)[C@H](Cc2cnc[nH]2)NC(=O)CN(C)C(=O)[C@H](Cc2ccc(-c3ccc(C(=O)Nc4cccc(CC(=O)O)c4)cc3)cc2)NC(=O)[C@H](Cc2ccc(-c3ccc(C(=O)O)cc3)cc2)NC(=O)[C@H](Cc2cccc(C(N)=O)c2)NC(=O)CSC[C@@H](C(=O)NCC(N)=O)NC(=O)[C@H](CC(C)C)NC(=O)[C@H](Cc2cnc[nH]2)NC(=O)[C@H](C(C)C)NC(=O)[C@@H]2CCCN2C1=O [Example 634] ({CH2CO}-[Phe(3-CONH2)][Bip(4'-COOH)][X65][Sar]HD[dR]IPVHLCG-NH2; thioether N-13), CC(C)C[C@@H]1NC(=O)[C@H](Cc2ncc[nH]2)NC(=O)[C@H](C(C)C)NC(=O)[C@@H]2CCCN2C(=O)[C@H](C(C)C)NC(=O)[C@@H](CCCNC(=N)NCc2ccccc2)NC(=O)[C@H](CC(=O)O)NC(=O)[C@H](Cc2ccccn2)NC(=O)CN(C)C(=O)[C@H](Cc2ccc(-c3ccc(NC(=O)c4cccc(OCC(=O)O)c4)cc3)cc2)NC(=O)[C@H](Cc2ccc(-c3ccccc3)cc2)NC(=O)[C@H](CN2CCOCC2)NC(=O)CSC[C@@H](C(=O)NCC(N)=O)NC1=O [Example 641] ({CH2CO}-[Ala(morpholin-4-yl)][Bip][Bip(4'-NH)](Benzoyl(3-OCH2COOH))[Sar][2Pal]D[dArg(ω-Bn)]VPV[Ala(imidazol-2-yl)]LCG-NH2; thioether N-13), CC(C)C[C@@H]1NC(=O)[C@H](Cc2ncc[nH]2)NC(=O)[C@H](C(C)C)NC(=O)[C@@H]2CCCN2C(=O)[C@H](C(C)C)NC(=O)[C@@H](CCCNC(=N)NCc2ccccc2)NC(=O)[C@H](CC(=O)O)NC(=O)[C@H](Cc2ccccn2)NC(=O)CN(C)C(=O)[C@H](Cc2ccc(-c3ccc(NC(=O)c4ccc(CC(=O)O)cc4)cc3)cc2)NC(=O)[C@H](Cc2ccc(-c3ccccc3)cc2)NC(=O)[C@H](CN2CCOCC2)NC(=O)CSC[C@@H](C(=O)NCC(N)=O)NC1=O [Example 642] ({CH2CO}-[Ala(morpholin-4-yl)][Bip][Bip(4'-NHCO-C6H4-4-CH2COOH)][Sar][2Pal]D[dArg(ω-Bn)]VPV[Ala(imidazol-2-yl)]LCG-NH2; thioether N-13)
